Patent US20220111034A1, “VIRUS COMPOSITIONS” (priority 2019, published 2022)
Some results were stated once for a whole list of compounds, not compound by compound.

Legend:
JAM-A = assay: FD-based AFM single-virus force spectroscopy on JAM-A-coated model surfaces; format: binding; settings: 1 mM glycan injected, FIG. 5b,c
Method: NHS-PEG27-acetal linkers were used to functionalize AFM tips as described (Gruber. Crosslinkers and Protocols for AFM Tip Functionalization. https://wwwjku.at/institut-fuer-biophysik/forschung/linked, 2018; Wildling et al. Linking of sensor molecules with amino groups to aminofunctionalized AFM tips. Bioconjug. Chem. 2011, vol. 22, 1239-1248). AFM tips (PFQNM-LC and MSCT probes, Bruker) were immersed in chloroform for 10 min, rinsed with ethanol, dried with a stream of filtered nitrogen, cleaned for 10 min using an ultraviolet radiation and ozone (UV-0) cleaner (Jetlight), and immersed overnight in an ethanolamine solution (3.3 g of ethanolamine hydrochloride in 6.6 mL of DMSO). The cantilevers were washed three times with DMSO, and two times with ethanol and dried with nitrogen. To ensure a low grafting density of the linker on the AFM tip, 1 mg of acetal-PEG27-NHS was diluted in 0.5 mL of chloroform with 30 μL of […] (Gruber, supra; Wildling et al., supra). […]
His6-tagged JAM-A (Bio-Connect Life Science) was immobilized using NTA-His6 binding chemistry, as described (Dupres et al. 2005, supra; Dufrêne. Life at the nanoscale: atomic force microscopy of live cells. Pan Stanford Publishing, 2011). […] The thickness was measured as described for sialic-acid-coated model surfaces. […]

[1] = tested on: JAM-A on Lec2-JAM-A cells; assay: FD-based AFM with virus-functionalized tip on living Lec2-JAM-A cells, with glycan addition; format: cell-based, human; settings: 1 mM glycan
Method: Engineering and characterization of cell lines expressing JAM-A. Monolayers of CHO (ATCC, #CCL-61) and Lec2 (ATCC, #CRL-1736) cells were transduced with lentiviruses encoding a puromycin resistance gene and human JAM-A or a puromycin resistance gene alone. Transduced cells were selected for puromycin resistance by passaging twice in medium containing 20 μg ml^−1 puromycin. The concentration of puromycin used was the minimal concentration that yielded complete death of non-transduced CHO and Lec2 cells. Following selection for puromycin resistance, cells were further selected for cell surface expression of JAM-A using fluorescence-activated cell sorting (FACS). Cell-surface expression of JAM-A was detected using the monoclonal antibody, J10.4 (Liu et al. Human junction adhesion molecule regulates tight junction resealing in epithelia. J. Cell Sci. 2000, vol. 113, 2363-2374), and a fraction of cells with high JAM-A expression was collected and propagated using puromycin selection. In the ensuing Examples, cells transduced and selected for puromycin resistance alone will be referred to as CHO and Lec2 and those selected for puromycin resistance and JAM-A expression will be referred to as CHO-JAM-A and Lec2-JAM-A, respectively. […]

| Compound | overall binding force of T3SA+ to JAM-A after glycan addition (JAM-A) | increase in T3SA+ binding following glycan injection [1] |
| --- | --- | --- |
| sialyl-lacto-N-tetraose a [LSTa] | up to 400 pN | 20-25% |
| CC(=O)N[C@H]1[C@H]([C@H](O)[C@H](O)CO)OC(O)(C(=O)O)C[C@@H]1O (stereo partly shown) [Neu5Ac, N-acetylneuraminic acid] | up to 400 pN | 20-25% |
